Results reported in the supplement of paper PMC8104966.
± gives the standard deviation of the averaged measurements. The list shows a part of the results. This data set is noisy: repeats of one test often differ as much as different tests do.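 U2OS cells carrying ACE2 were mixed with U2OS cells carrying full-length spike, and fusion was scored by imaging as the share of nuclei showing both cell types' fluorescent markers. A compound counts as an inhibitory hit when it is non-toxic and its fusion z-score falls below -3, meaning more than three standard deviations below the plate's DMSO wells.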

Each molecule was assayed on U2OS ACE2 x SARS-CoV-2 spike co-culture (assay: cell-cell fusion (fraction fused) z-score vs plate DMSO control; higher = more fusion). Conditions: 30 µM; 5 h; toxicity class: non-toxic, passed QC.

Row | Structure (SMILES) | cell-cell fusion (z-score)
1 | CCn1cc(C(=O)O)c(=O)c2cc(F)c(N3CCNC(C)C3)c(F)c21.Cl (stereo not drawn) [Lomefloxacin hydrochloride] | inactive: 2.62
2 | O=c1c(O)c(-c2ccccc2)oc2cc(O)cc(O)c12 | inactive: 1.11
3 | CCC1(c2ccc(N)cc2)CCC(=O)NC1=O (stereo not drawn) [Aminoglutethimide] | inactive: 2.23
4 | O=C(Cc1ccc(-c2ccc(OCCN3CCOCC3)cc2)cn1)NCc1ccccc1 | inactive: -0.0667
5 | CCCCCCCCCCCCCCCC[n+]1ccccc1.[Cl-] | -2.72 ± 0.49
6 | O=[N+]([O-])c1cccc2cn[nH]c12 | inactive: 3.17
7 | CCc1cncnc1N1CCN(Cc2nc3cc(C(F)(F)F)ccc3[nH]2)CC1 | inactive: 2.54
8 | CCN(C(C)=O)c1cccc(-c2ccnc3c(C#N)cnn23)c1 | inactive: 3.58
9 | O=c1[nH]c2cc([N+](=O)[O-])c([N+](=O)[O-])cc2[nH]c1=O | inactive: 1.67
10 | O=C(O)CCc1nc2ccccc2[nH]1 | inactive: 0.965
11 | O=C1c2ccccc2C(=O)c2c(NCCc3ccc(O)cc3)ccc(NCCc3ccc(O)cc3)c21 | active: -13.4
12 | Cl.N[C@@H](Cc1c[nH]cn1)C(=O)O [L-Histidine hydrochloride] | inactive: 2.96
13 | CC(=O)Oc1cc2c(s1)CCN(C(C(=O)C1CC1)c1ccccc1F)C2 (stereo not drawn) [Prasugrel] | inactive: 3.22
14 | Brc1ccc([C@H]2CN3CCSC3=N2)cc1.O=C(O)C(=O)O [S(-)-p-Bromotetramisole oxalate] | inactive: 1.48
15 | CC(=O)Oc1cc(C(C)C)c(OCCN(C)C)cc1C.Cl [Moxisylyte hydrochloride] | inactive: 2.4
16 | CC(=O)Oc1cc(C(C)C)c(OCCN(C)C)cc1C.Cl | inactive: 1.66
17 | CSC(=N)N.CSC(=N)N.O=S(=O)(O)O [S-Methylisothiourea hemisulfate] | inactive: 2.56
18 | C[C@]12CCC(=O)C(O)=C1CC[C@@H]1[C@H]2CC[C@]2(C)C(=O)CC[C@@H]12 [Formestane] | inactive: 1.83
19 | O=C(O)CCCCC1SCC2NC(=O)NC21 (stereo not drawn) | inactive: 3.56
20 | COc1ccc(CCN2CCC(Nc3nc4ccccc4n3Cc3ccc(F)cc3)CC2)cc1 | inactive: -0.408
21 | C#C[C@]1(O)CCC2C3CCC4=CC(=O)CC[C@@H]4C3CC[C@@]21CC (stereo partly drawn) | inactive: 1.14
22 | Cc1c2oc3c(C)ccc(C(=O)OC(C)C4NC(=O)C(C(C)C)N(C)C(=O)CN(C)C(=O)C5CCCN5C(=O)C(C(C)C)NC4=O)c3nc-2c(C(=O)OC(C)C2NC(=O)C(C(C)C)N(C)C(=O)CN(C)C(=O)C3CCCN3C(=O)C(C(C)C)NC2=O)c(N)c1=O (stereo not drawn) | inactive: -0.173
23 | CC(=O)Nc1cccc(O)c1 | inactive: 1.44
24 | CCN(CCO)CCCC(C)Nc1ccnc2cc(Cl)ccc12.O=S(=O)(O)O (stereo not drawn) | inactive: 3.15

Quoted at random: 2 records from the list.
Row | Structure (SMILES) | cell-cell fusion (z-score)
23 | CC(=O)Nc1cccc(O)c1 | inactive: 1.44
2 | O=c1c(O)c(-c2ccccc2)oc2cc(O)cc(O)c12 | inactive: 1.11

Additional results:

Row | Structure (SMILES) | cell-cell fusion (z-score)
25 | O=c1c(O)c(-c2ccc(O)c(O)c2)oc2cc(O)cc(O)c12 [Quercetin (Sophoretin)] | inactive: 2.16
26 | O=c1c(O)c(-c2ccc(O)c(O)c2)oc2cc(O)cc(O)c12 [Quercetin] | inactive: 1.62
27 | c1ccc2c(c1)cc1ccc3cccc4ccc2c1c34 | inactive: 0.626
28 | CN(CCOc1ccc(CC2SC(=O)NC2=O)cc1)c1ccccn1 (stereo not drawn) [Rosiglitazone (Avandia)] | inactive: 1.83
29 | CC(C)(C)Cn1c(N)nc2ccc(-c3[nH]c(C(C)(C)C)nc3-c3ccc(F)cc3)nc21.CS(=O)(=O)O.CS(=O)(=O)O | inactive: 3.2
30 | O=C([O-])P(=O)([O-])[O-].[Na+].[Na+].[Na+] [Foscarnet sodium] | inactive: 2.05
31 | Cn1nnc(-c2ccc(-c3ccc(N4C[C@H](COP(=O)(O)O)OC4=O)cc3F)cn2)n1 [Tedizolid Phosphate] | inactive: 1.11
32 | CC(C)N=c1cc2n(-c3ccc(Cl)cc3)c3ccccc3nc-2cc1Nc1ccc(Cl)cc1 [Clofazimine] | inactive: 3.96
33 | CCC1(c2ccc(N)cc2)CCC(=O)NC1=O (stereo not drawn) [Aminoglutethimide (Cytadren)] | inactive: 1.56
34 | CNC(=O)c1ccccc1Sc1ccc2c(/C=C/c3ccccn3)n[nH]c2c1 [Axitinib] | inactive: -1.25
35 | CON.Cl | inactive: 1.25
36 | CC(=O)N=c1sc(S(N)(=O)=O)nn1C [Methazolamide] | inactive: 1.07
37 | N#Cc1cc(NC(=O)C(=O)O)c(Cl)c(NC(=O)C(=O)O)c1 [Lodoxamide] | inactive: 0.921
38 | NS(=O)(=O)c1cc(C2(O)NC(=O)c3ccccc32)ccc1Cl (stereo not drawn) | inactive: 0.989
39 | O=C(NOCC1CC1)c1ccc(F)c(F)c1Nc1ccc(I)cc1Cl | inactive: -0.481
40 | CCN(CC)CCOC(=O)C(c1ccccc1)C1CCCCC1.Cl (stereo not drawn) | inactive: 2.7
41 | CCCCCC(=O)O[C@]1(C(C)=O)CCC2C3CCC4=CC(=O)CC[C@]4(C)C3CC[C@@]21C (stereo partly drawn) | inactive: 1.14
42 | CC(C)(C)NCC(O)c1cc(O)cc(O)c1.O=S(=O)(O)O (stereo not drawn) | inactive: 2.62
43 | N=C1NCCN1CC(=O)O | inactive: 1.95
44 | COC1=C(OC)C(=O)c2ccccc2C1=O [2,3-Dimethoxy-1,4-naphthoquinone] | inactive: 2
45 | CCn1cc(C(=O)O)c(=O)c2cnc(N3CCNCC3)nc21.NCCO | inactive: 2.65
46 | Nc1nc(=O)c2c([nH]1)NCC(CNc1ccc(C(=O)N[C@@H](CCC(=O)[O-])C(=O)[O-])cc1)N2C=O.[Ca+2] (stereo partly drawn) | inactive: 0.0965
47 | CCCCC[C@H](CC(=O)NO)C(=O)N[C@H](C(=O)N1CCC[C@H]1CO)C(C)C [Actinonin] | inactive: 0.117
48 | C#Cc1cccc(Nc2ncnc3cc(OCCOC)c(OCCOC)cc23)c1.Cl [Erlotinib hydrochloride] | inactive: 0.838
